Values from PubChem BioAssay AID504774 (Drosophila RNAi Screening Center, 2011)
Screen: 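Fly genes whose loss alters survival after alkylation damage to DNA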 (primary screen). Cells: Drosophila Kc167 cells. Reagents: long dsRNA against Drosophila genes, about 0.25 µg dsRNA per well. Time to read-out: about 6 days: 3 days knock-down, then 3 days with or without MMS. Conditions: methyl methanesulphonate 0.004% (w/v) for 3 days after knock-down. Read-out: 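ATP-dependent luminescence as a measure of live cells in MMS-exposed wells, quantile normalised within each plate, with replicate values also given as a mean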. Direction: mean viability with MMS and viability with MMS: higher = more surviving cells after MMS.
The deposit covers about 23,000 reagents; this is a random part of those that have a named target and a result. 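Values are quantile-normalised luminescence on an arbitrary scale; higher means more cells surviving MMS.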 A plus sign joins genes that one reagent is predicted to hit.

predicted target	PubChem SID	mean viability with MMS	viability with MMS, replicate 1	viability with MMS, replicate 2
CG15099	SID104186320	3.70e6	4.26e6	4.12e6
CG8858	SID104187082	3.58e6	3.86e6	3.70e6
ntc	SID104187958	3.64e6	4.23e6	4.02e6
gammaTub37C	SID104183327	3.62e6	4.07e6	4.18e6
stwl	SID104191192	3.25e6	3.66e6	3.69e6
CG8405	SID104185391	3.57e6	4.03e6	4.04e6
CG8405	SID104186958	3.83e6	4.33e6	4.26e6
CG15725	SID104199483	3.50e6	3.97e6	3.94e6
lms	SID104186179	3.39e6	3.79e6	3.91e6
CG10477	SID104189524	3.54e6	4.11e6	3.92e6
CG5781	SID104182685	3.72e6	4.31e6	4.04e6
Sfp53D	SID104185417	3.41e6	3.96e6	3.79e6
yellow-f	SID104195140	3.37e6	3.85e6	3.77e6
CG31908	SID104201503	3.76e6	4.26e6	4.16e6
CG31908	SID104202600	2.88e6	3.05e6	3.25e6
spo	SID104190919	3.49e6	3.97e6	3.94e6
jdp	SID104196767	3.51e6	3.94e6	4.03e6
CG4945	SID104186696	3.56e6	3.98e6	4.08e6
UBL3	SID104200090	3.60e6	4.12e6	4.03e6
UBL3	SID104202649	3.74e6	4.20e6	4.27e6
CG11334	SID104193858	3.46e6	3.99e6	3.88e6
CG11334	SID104194094	3.62e6	4.06e6	4.14e6
ND-51L2	SID104186872	3.54e6	4.29e6	3.88e6
Cad96Ca	SID104194012	3.59e6	4.10e6	4.03e6
Cad96Ca	SID104196485	3.64e6	4.12e6	4.15e6
CG14717	SID104194732	3.60e6	4.09e6	4.04e6
GstE14	SID104186673	3.61e6	4.10e6	4.09e6
RhoGEF2	SID104187323	3.52e6	4.03e6	3.96e6
Uba5	SID104199567	3.60e6	4.05e6	4.09e6
CG11052	SID104194080	3.49e6	3.96e6	3.97e6
CG31743 + CG34313	SID104182573	3.49e6	3.95e6	3.96e6
CG31743 + CG34313	SID104182574	3.44e6	3.94e6	3.88e6
CG13056	SID104189729	3.74e6	4.12e6	4.27e6
Ent2	SID104181916	3.45e6	3.86e6	3.86e6
Sytalpha	SID104182661	3.49e6	4.07e6	3.86e6
Cyp4ac2	SID104183095	3.58e6	3.98e6	4.12e6
CG15760	SID104199517	3.53e6	4.01e6	3.98e6
CG7448 (retired record)	SID104191620	3.61e6	4.05e6	4.13e6
CG7448 (retired record)	SID104201939	3.37e6	3.95e6	3.83e6
Exo70	SID104190566	3.46e6	3.96e6	3.88e6
CG18545	SID104195135	3.68e6	4.10e6	4.15e6
CG32354	SID104190555	3.68e6	4.14e6	4.21e6
CG32354	SID104190567	3.65e6	3.88e6	3.74e6
CG32354	SID104201543	3.59e6	4.01e6	4.09e6
CG9512	SID104199981	3.65e6	3.99e6	4.15e6
GstE8	SID104186470	3.55e6	4.03e6	4.01e6
RpS19a	SID104200073	2.83e6	3.47e6	3.46e6
Es2	SID104198455	3.48e6	4.13e6	3.68e6
CG14851	SID104194767	3.55e6	3.87e6	4.20e6
CG14851	SID104201226	3.73e6	4.18e6	4.22e6
crm	SID104198546	3.65e6	4.05e6	4.20e6
CG8641	SID104190820	3.56e6	3.92e6	4.17e6
Toll-9	SID104191568	3.49e6	3.93e6	3.97e6
CG10970	SID104197564	3.59e6	3.99e6	4.19e6
Mer	SID104200051	3.62e6	4.06e6	4.17e6
snsl	SID104180335	3.52e6	4.00e6	3.97e6
GAA1	SID104198059	3.72e6	4.24e6	4.24e6
Phf5a	SID104183053	3.36e6	3.63e6	3.92e6
AP-1sigma	SID104195691	3.60e6	4.00e6	4.14e6
CG11977	SID104194246	3.50e6	3.97e6	3.98e6
mth	SID104188517	3.52e6	4.02e6	3.97e6
CG7139	SID104191403	3.64e6	4.14e6	4.09e6
CG4995	SID104182593	3.92e6	4.67e6	4.30e6
rtet	SID104193952	3.61e6	4.00e6	4.17e6
CG9903	SID104200005	3.63e6	4.13e6	4.07e6
CG31111	SID104194441	3.40e6	3.85e6	3.80e6
Alg9	SID104194199	3.25e6	3.72e6	3.73e6
CG8209	SID104190762	3.49e6	3.93e6	4.00e6

Single entries from the entries so far.
Value of CG9903 [SID104200005] under “viability with MMS, replicate 2”: 4.07e6
For “viability with MMS, replicate 1”, CG31743 + CG34313 [SID104182574] has 3.94e6
Result of CG18545 [SID104195135] under “viability with MMS, replicate 1”: 4.10e6
Result of CG13056 [SID104189729] under “viability with MMS, replicate 1”: 4.12e6
Result of stwl [SID104191192] under “mean viability with MMS”: 3.25e6
CG7448 (retired record) [SID104201939], mean viability with MMS = 3.37e6
